Measured values from paper PMC9837905.
For at least one entry, the source does not settle the construct or the ends of the probe. For part of these data: A negative result means that nothing was seen under these conditions.

Key:
GST-HuMYB132 [1] = experiment: competition with a labelled probe; conditions: LightShift Chemiluminescent EMSA Kit, 50 ng GST-HuMYB132, 6% native PAGE, pH and temperature not stated, recombinant protein, protein details: N-terminal GST (pGEX-4T-1)
GST-HuMYB132 [2] = experiment: EMSA; conditions: unlabeled probe weakens the shift; LightShift Chemiluminescent EMSA Kit, 50 ng GST-HuMYB132, 6% native PAGE; pH and temperature not stated; recombinant protein; protein details: N-terminal GST (pGEX-4T-1); label: 3' biotin

Row | Sequence | binding result (GST-HuMYB132 [2]) | further results
1 | AAAGACTTAAAAAAAGTATAAAATTTTTTTGGACGAATGATGCACAAATT (double strand) [HuDODA1 mutant probe] |  | binding result (GST-HuMYB132 [1]; EMSA competitor against N3, no significant change): no binding
2 | AAAGACTTCAGTTGAGTATAAAAGGTTAGGGGACGAATGATGCACAAATT (double strand) [HuDODA1 promoter probe] | binds | 
3 | ATCCATCAAAAAAAAAAAAATTTTATAGAATAGAAAAAAAAACTCAGCTC (double strand) [HuCYP76AD1-1 mutant probe] |  | binding result (GST-HuMYB132 [1]; EMSA competitor against N2, no significant change): no binding
4 | ATCCATCAACCTAACCTAAATTTTATAGAATAGAATAACTGACTCAGCTC (double strand) [HuCYP76AD1-1 promoter probe] | binds | 
5 | GATCGATTCTCAGAAAAAAAAAAACCCGCCCTCCCATTTTCCCTCTCCTC (double strand) [HuADH1 mutant probe] |  | binding result (GST-HuMYB132 [1]; EMSA competitor against N1, no significant change): no binding
6 | GATCGATTCTCAGCAACCACCTAACCCGCCCTCCCATTTTCCCTCTCCTC (double strand) [HuADH1 promoter probe] | binds | 
